These are yes or no findings as the source states them, for the method shown.
Biological target: Spätzle processing protease (SPE), yeast hybrid fusion (Drosophila melanogaster) (UniProt Q9VCJ8)
Assay: two-hybrid; Gal4 yeast two-hybrid in strain Y2H Gold; bait in pGBKT7, prey in pGADT7, genes without signal peptide; growth on SD‐Leu‐Trp‐Ala‐His plus X‐gal; library screen with Spz as bait, pairwise verification and reciprocal assays with switched bait and prey

Chains of the proteins cited; added tags and fusions are not shown.
UniProt Q9VCJ8: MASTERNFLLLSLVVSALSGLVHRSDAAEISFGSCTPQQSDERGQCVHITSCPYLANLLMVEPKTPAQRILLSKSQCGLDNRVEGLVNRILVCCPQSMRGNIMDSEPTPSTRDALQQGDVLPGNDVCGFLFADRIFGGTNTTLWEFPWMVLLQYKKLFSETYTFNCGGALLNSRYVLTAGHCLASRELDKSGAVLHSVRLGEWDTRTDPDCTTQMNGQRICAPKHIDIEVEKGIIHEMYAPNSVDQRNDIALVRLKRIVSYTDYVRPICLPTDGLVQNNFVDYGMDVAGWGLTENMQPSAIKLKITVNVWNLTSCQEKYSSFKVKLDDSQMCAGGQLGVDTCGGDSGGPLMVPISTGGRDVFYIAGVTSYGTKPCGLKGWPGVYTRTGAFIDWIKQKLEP

In the case of “Spätzle processing protease (SPE), yeast hybrid fusion (from UniProt Q9VCJ8 1-400) (enzyme)”, the binding is reported as “no binding”.

From PMC12767022
